This series concerns the target T1, pMarR (Gp0.7) WT (cyanophage P-SSP7) (UniProt Q58N47).
T1 sequence (looked up, limits assumed): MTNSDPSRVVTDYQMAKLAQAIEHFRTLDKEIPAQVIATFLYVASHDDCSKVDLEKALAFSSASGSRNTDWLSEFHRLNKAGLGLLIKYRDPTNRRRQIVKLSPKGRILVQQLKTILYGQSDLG
The series can be described thus: EMSA. Conditions: no Ca2+, Kd almost 4-fold higher than with Ca2+ (value only in figure); EMSA: 20 mM Tris pH 8, 60 mM KCl, 1 mM EDTA, 12% glycerol, 2 mM DTT, 1 ug poly(dI-dC), 12.5 ng (legend: 12.5 nM) Cy5-DNA, +/-5 mM Ca2+, 1% agarose 0.5x TAE; recombinant protein; protein details: C-terminal His; label: Cy5 5' (forward primer); probe letters rebuilt from the primers and the genome. (In general: Mobility shift assays separate free from complexed probe on a gel.)

The results in this text go back to paper PMC9692554.

The exact form of at least one protein or probe is not confirmed. Where a protein sequence is shown, tags need not be part of it.

Turning to “CAGCATCAATACCTGGTAGGACATTTTCAACAGTTCCTAAAAAAATATCCCCGATTTGATATTGACCTTGTGCGACGATTAATTCATCAACTTGATCATCTGTGAGTAGTGCTGCAATACGCGCCTGCTCAGCTATTACAATTTGCTGAGAC (double strand) [rne Pi+]”, the binding result was “binds”.
